Results are given in words; binding and its absence hold for the method and conditions named. For some of these results: In cells and extracts the contact can be indirect. Some entries that bind do so weakly or less than the wild type.
Key:
[1] = molecular target: HA-LARP4B W(63)→K (overexpressed in HEK293 cells) (human) (UniProt Q92615); test: co-IP; extracts of HEK293 cells co-transfected with HA-LARP4B or the W63K mutant and PABPC1; immunoprecipitated with anti-LARP4B antibody (pre-immune serum as control); Western blotting
[2] = molecular target: HA-LARP4B (overexpressed in HEK293 cells) (human) (UniProt Q92615); test: as above
[3] = molecular target: HA-LARP4B (in vitro translated) (human) (UniProt Q92615); test: co-IP; HA-PABPC1 co-translated in vitro with HA-LARP4B or the W63K mutant, [35S]-labelled; immunoprecipitated with anti-LARP4B antibody on protein-G-Sepharose (pre-immune serum as control); autoradiography
[4] = molecular target: MLLE domain (amino acids 543-621) of human PABPC1 (human) (UniProt P11940); test: crystal structure; MLLE domain co-crystallised with LARP4B-PAM2w peptide in a 1:1.5 molar ratio; hanging drop; 100 mM NaCl, 2 mM beta-mercaptoethanol, 10 mM HEPES pH 7.5; reservoir 1.5 M magnesium sulfate, 0.1 M Bis-Tris pH 6.5; 1.7 Å; both purified

Protein sequences, listed by entry. Tags and fused reporters are not part of them. Lines headed by an entry give the natural chain unless they say otherwise; changes in a name come on top. Chains listed by the source or under a name are the forms on record and can include a tag or linker. Residues count along the entry.
UniProt Q92615: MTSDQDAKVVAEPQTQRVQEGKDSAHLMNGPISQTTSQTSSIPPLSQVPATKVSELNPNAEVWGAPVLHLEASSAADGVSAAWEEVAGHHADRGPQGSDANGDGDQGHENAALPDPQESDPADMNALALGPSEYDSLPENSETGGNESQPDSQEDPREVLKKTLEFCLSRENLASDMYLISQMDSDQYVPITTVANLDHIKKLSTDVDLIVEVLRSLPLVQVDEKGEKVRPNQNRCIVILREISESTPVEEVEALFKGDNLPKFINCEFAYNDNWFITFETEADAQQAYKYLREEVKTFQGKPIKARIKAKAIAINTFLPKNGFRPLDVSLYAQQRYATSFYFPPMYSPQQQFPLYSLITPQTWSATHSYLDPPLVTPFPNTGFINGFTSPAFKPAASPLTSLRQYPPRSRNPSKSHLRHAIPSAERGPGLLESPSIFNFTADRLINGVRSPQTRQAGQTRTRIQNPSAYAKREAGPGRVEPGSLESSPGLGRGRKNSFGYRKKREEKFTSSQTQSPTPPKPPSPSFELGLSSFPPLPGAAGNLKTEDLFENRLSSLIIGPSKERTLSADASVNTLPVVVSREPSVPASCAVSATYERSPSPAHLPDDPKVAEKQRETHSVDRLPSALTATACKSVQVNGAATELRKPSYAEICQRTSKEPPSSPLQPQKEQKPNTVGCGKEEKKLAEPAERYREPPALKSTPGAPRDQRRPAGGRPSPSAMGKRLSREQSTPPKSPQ
HA-LARP4B W(63)→K (overexpressed in HEK293 cells) (Q92615, form named): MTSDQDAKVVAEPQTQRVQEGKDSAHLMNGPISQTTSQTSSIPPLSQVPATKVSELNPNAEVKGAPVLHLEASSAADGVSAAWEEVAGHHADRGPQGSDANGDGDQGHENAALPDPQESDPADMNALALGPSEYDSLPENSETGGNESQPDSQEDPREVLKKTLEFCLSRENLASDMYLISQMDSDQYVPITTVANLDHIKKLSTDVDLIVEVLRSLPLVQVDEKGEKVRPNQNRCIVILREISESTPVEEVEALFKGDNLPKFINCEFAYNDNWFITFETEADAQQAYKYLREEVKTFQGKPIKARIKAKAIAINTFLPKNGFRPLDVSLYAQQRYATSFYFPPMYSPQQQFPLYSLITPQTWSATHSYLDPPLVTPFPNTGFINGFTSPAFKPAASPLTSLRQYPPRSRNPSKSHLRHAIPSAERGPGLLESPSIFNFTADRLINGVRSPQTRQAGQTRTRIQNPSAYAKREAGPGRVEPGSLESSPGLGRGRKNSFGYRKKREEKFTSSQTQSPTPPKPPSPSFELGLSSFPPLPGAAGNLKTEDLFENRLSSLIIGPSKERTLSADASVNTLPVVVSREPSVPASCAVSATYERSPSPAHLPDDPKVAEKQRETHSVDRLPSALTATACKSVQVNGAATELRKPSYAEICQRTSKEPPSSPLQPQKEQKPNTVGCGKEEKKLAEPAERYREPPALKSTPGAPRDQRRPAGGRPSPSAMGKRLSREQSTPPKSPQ
UniProt P11940: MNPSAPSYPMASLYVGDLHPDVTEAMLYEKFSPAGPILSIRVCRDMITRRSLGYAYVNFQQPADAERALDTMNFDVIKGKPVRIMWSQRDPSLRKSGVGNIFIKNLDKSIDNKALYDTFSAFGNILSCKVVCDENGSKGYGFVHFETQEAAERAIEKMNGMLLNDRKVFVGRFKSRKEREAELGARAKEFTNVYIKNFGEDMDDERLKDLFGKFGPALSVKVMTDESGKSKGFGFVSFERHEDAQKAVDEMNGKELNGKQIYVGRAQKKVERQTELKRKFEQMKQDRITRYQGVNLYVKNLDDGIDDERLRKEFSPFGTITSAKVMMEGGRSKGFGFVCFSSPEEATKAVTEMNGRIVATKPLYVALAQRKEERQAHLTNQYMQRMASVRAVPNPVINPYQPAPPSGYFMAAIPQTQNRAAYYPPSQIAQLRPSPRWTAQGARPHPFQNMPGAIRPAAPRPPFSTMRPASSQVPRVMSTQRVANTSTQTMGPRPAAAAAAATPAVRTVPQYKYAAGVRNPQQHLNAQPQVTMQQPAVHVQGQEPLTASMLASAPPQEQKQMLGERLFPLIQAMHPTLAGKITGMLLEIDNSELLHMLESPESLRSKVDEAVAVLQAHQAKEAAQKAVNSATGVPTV
MLLE domain (amino acids 543-621) of human PABPC1: residues 543-621 of P11940

PABPC1 (co-transfected in HEK293 cells) (from UniProt P11940 1-636)
binding [1]: binds
binding [2]: binds

HA-PABPC1 (in vitro translated) (from UniProt P11940 1-636)
binding [3]: binds

B1: LARP4B-PAM2w peptide (residues 56 to 70) (peptide, UniProt Q92615 56-70)
peptide: LNPNAEVWGAPVLHL
binding [4]: binds

Source: publication PMC7356810
